{"sequences": {"note": "Chains of the proteins cited; added tags and fusions are not shown.", "UniProt Q15717, whole entry": "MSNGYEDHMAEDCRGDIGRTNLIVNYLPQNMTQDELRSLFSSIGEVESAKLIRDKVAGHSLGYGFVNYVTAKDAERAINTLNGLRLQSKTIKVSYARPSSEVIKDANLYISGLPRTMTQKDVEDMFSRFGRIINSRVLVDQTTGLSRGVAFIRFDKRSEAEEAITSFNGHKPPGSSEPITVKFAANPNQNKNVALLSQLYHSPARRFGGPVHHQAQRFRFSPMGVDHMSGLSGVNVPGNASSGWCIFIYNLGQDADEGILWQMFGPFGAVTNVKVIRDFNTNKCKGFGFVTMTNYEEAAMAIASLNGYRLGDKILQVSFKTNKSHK"}, "source": "the supplement of paper PMC3741180", "about": "“A Novel High Throughput Biochemical Assay to Evaluate the HuR Protein-RNA Complex Formation” (PLoS ONE, 2013)", "note": "Some of the results follow. This data set is noisy: repeats of one test often differ as much as different tests do.", "data": [{"molecular_target": "HuR (ELAVL1) - TNFalpha ARE RNA complex (UniProt Q15717)", "experiment": "AlphaScreen HuR-RNA complex signal Z-score relative to positive (Bi-TNF, DMSO) controls (Z-score (SD units of positive control)); higher = more complex signal", "conditions": "screen stage: primary screen; compound concentration: 25 nM", "values": [{"smiles": "OCc1cccnc1", "AlphaScreen HuR-RNA complex signal Z-score": 0.901}, {"smiles": "O=Cc1ccccc1O[C@@H]1O[C@H](CO)[C@@H](O)[C@H](O)[C@H]1O", "AlphaScreen HuR-RNA complex signal Z-score": 1.73}, {"smiles": "COC(=O)C(Cc1ccccc1)NC(=O)/C(=C1/OC(=O)C(c2ccccc2)=C1O)c1ccccc1", "note": "(stereo unspecified)", "AlphaScreen HuR-RNA complex signal Z-score": 2.02}, {"smiles": "CN(C)CCC=C1c2ccccc2COc2ccccc21", "AlphaScreen HuR-RNA complex signal Z-score": -2.53}, {"smiles": "CC(C)[N+](C)(CCOC(=O)C1c2ccccc2Oc2ccccc21)C(C)C", "AlphaScreen HuR-RNA complex signal Z-score": 1.61}, {"smiles": "CN1CCC[C@@H]1Cc1c[nH]c2ccc(CCS(=O)(=O)c3ccccc3)cc12", "AlphaScreen HuR-RNA complex signal Z-score": -0.883}, {"smiles": "Cc1cccc(C)c1OCC(C)N", "note": "(stereo unspecified)", "AlphaScreen HuR-RNA complex signal Z-score": 0.708}, {"smiles": "COc1cc(C)c2c(c1C=O)Oc1c(c(C)c(O)c3c1C(O)OC3=O)OC2=O", "note": "(stereo unspecified)", "AlphaScreen HuR-RNA complex signal Z-score": 0.555}, {"smiles": "CC[C@]1(O)C[C@H]2CN(CCc3c([nH]c4ccccc34)[C@@](C(=O)OC)(c3cc4c(cc3OC)N(C=O)[C@H]3[C@@](O)(C(=O)OC)[C@H](OC(C)=O)[C@]5(CC)C=CCN6CC[C@]43[C@@H]65)C2)C1", "AlphaScreen HuR-RNA complex signal Z-score": 2.07}, {"smiles": "COc1ccccc1OCC(O)CO", "note": "(stereo unspecified)", "AlphaScreen HuR-RNA complex signal Z-score": -1.21}, {"smiles": "Cc1cc(=O)[nH]c(=S)[nH]1", "AlphaScreen HuR-RNA complex signal Z-score": 0.504}, {"smiles": "CC1(C)C2CCC1(C)C(O)C2", "note": "(stereo unspecified)", "AlphaScreen HuR-RNA complex signal Z-score": 0.938}, {"smiles": "Cc1c(N(C)C)c(=O)n(-c2ccccc2)n1C", "AlphaScreen HuR-RNA complex signal Z-score": -0.519}, {"smiles": "Oc1c(Cl)cc(Cl)c(Cl)c1Cc1c(O)c(Cl)cc(Cl)c1Cl", "AlphaScreen HuR-RNA complex signal Z-score": -2.76}, {"smiles": "CC(=O)N1CCCC1C(=O)O", "note": "(stereo unspecified)", "AlphaScreen HuR-RNA complex signal Z-score": 1.99}, {"smiles": "Oc1ccc(/C=C/c2cc(O)cc(O)c2)cc1", "AlphaScreen HuR-RNA complex signal Z-score": 0.372}, {"smiles": "CCCCCCCCCCCCCCC(C(=O)O)C(O)(CC(=O)OC)C(=O)O", "note": "(stereo unspecified)", "AlphaScreen HuR-RNA complex signal Z-score": 1.97}, {"smiles": "Nc1nc2[nH]cnc2c(=S)[nH]1", "AlphaScreen HuR-RNA complex signal Z-score": 21.5}, {"smiles": "C/C1=C2/[N-][C@H]([C@H](CC(N)=O)[C@@]2(C)CCC(=O)NC[C@@H](C)OP(=O)([O-])O[C@H]2[C@@H](O)[C@@H](n3cnc4cc(C)c(C)cc43)O[C@@H]2CO)[C@]2(C)N=C(/C(C)=C3N=C(/C=C4N=C1[C@@H](CCC(N)=O)C\\4(C)C)[C@@H](CCC(N)=O)[C@]\\3(C)CC(N)=O)[C@@H](CCC(N)=O)[C@]2(C)CC(N)=O.[CH2-][C@H]1O[C@H](n2cnc3c(N)ncnc32)[C@@H](O)[C@H]1O.[Co+3]", "AlphaScreen HuR-RNA complex signal Z-score": -0.17}, {"smiles": "CN(C)C(=O)C(CCN1CCC(O)(c2ccc(Cl)cc2)CC1)(c1ccccc1)c1ccccc1", "AlphaScreen HuR-RNA complex signal Z-score": 2.31}, {"smiles": "CC(C(=O)O)c1ccc2c(c1)[nH]c1ccc(Cl)cc12", "note": "(stereo unspecified)", "AlphaScreen HuR-RNA complex signal Z-score": 1.72}, {"smiles": "O=C(O)C1CCCNC1", "note": "(stereo unspecified)", "AlphaScreen HuR-RNA complex signal Z-score": 0.525}, {"smiles": "O=C1c2c(O)cccc2C([C@@H]2O[C@H](CO)[C@@H](O)[C@H](O)[C@H]2O)c2cc(CO)cc(O)c21", "note": "(stereo partly specified)", "AlphaScreen HuR-RNA complex signal Z-score": 1.46}, {"smiles": "C[C@H]1O[C@@H](O[C@H]2[C@@H](O)C[C@H](O[C@H]3[C@@H](O)C[C@H](O[C@H]4CC[C@@]5(C)[C@H](CC[C@@H]6[C@@H]5C[C@@H](O)[C@]5(C)[C@@H](C7=CC(=O)OC7)CC[C@]65O)C4)O[C@@H]3C)O[C@@H]2C)C[C@H](O)[C@@H]1O", "AlphaScreen HuR-RNA complex signal Z-score": 0.165}, {"smiles": "O=c1ccc2cc(O)c(O)cc2o1", "AlphaScreen HuR-RNA complex signal Z-score": 1.86}, {"smiles": "C[C@H](CCC(=O)O)[C@H]1CC[C@H]2[C@@H]3[C@H](O)C[C@@H]4C[C@H](O)CC[C@]4(C)[C@H]3C[C@H](O)[C@]12C", "AlphaScreen HuR-RNA complex signal Z-score": 1.29}, {"smiles": "CC(=O)OC1CCC2(C)C(=CCC3C2CCC2(C)C(C(C)CCCC(C)C)CCC32)C1", "note": "(stereo unspecified)", "AlphaScreen HuR-RNA complex signal Z-score": 1.87}, {"smiles": "O=C(OCC(O)CO)c1ccccc1Nc1ccnc2cc(Cl)ccc12", "note": "(stereo unspecified)", "AlphaScreen HuR-RNA complex signal Z-score": 1.91}, {"smiles": "CC(C(=O)O)c1ccc(-c2ccccc2)c(F)c1", "note": "(stereo unspecified)", "AlphaScreen HuR-RNA complex signal Z-score": -6.16}, {"smiles": "Cc1cc(O)c2c(c1)C(=O)c1cccc(O)c1C2=O", "AlphaScreen HuR-RNA complex signal Z-score": 1.6}, {"smiles": "OC[C@H]1O[C@H](O[C@]2(CCl)O[C@H](CCl)[C@@H](O)[C@@H]2O)[C@H](O)[C@@H](O)[C@H]1Cl", "AlphaScreen HuR-RNA complex signal Z-score": 2.21}, {"smiles": "O=C(O)[C@@H](O)[C@H](O)[C@H](O)[C@@H](O)C(=O)O", "AlphaScreen HuR-RNA complex signal Z-score": 0.775}, {"smiles": "Oc1cc(O)c2c(c1)O[C@H](c1ccc(O)c(O)c1)[C@H](O)C2", "AlphaScreen HuR-RNA complex signal Z-score": 2.02}, {"smiles": "Nc1nc2ccc(OC(F)(F)F)cc2s1", "AlphaScreen HuR-RNA complex signal Z-score": -0.149}, {"smiles": "COc1ccc2c(c1)c(CC(=O)O)c(C)n2C(=O)c1ccc(Cl)cc1", "AlphaScreen HuR-RNA complex signal Z-score": -2.07}, {"smiles": "COc1ccc(-c2cc(=O)c3c(O)c(OC)c(O[C@@H]4O[C@H](CO[C@@H]5O[C@@H](C)[C@H](O)[C@@H](O)[C@H]5O)[C@@H](O)[C@H](O)[C@H]4O)cc3o2)cc1", "AlphaScreen HuR-RNA complex signal Z-score": 1.32}, {"smiles": "Cn1c(=O)[nH]c(=O)c2[nH]cnc21", "AlphaScreen HuR-RNA complex signal Z-score": 1.54}, {"smiles": "O=C(C1CCCCC1)N1CC(=O)N2CCc3ccccc3C2C1", "note": "(stereo unspecified)", "AlphaScreen HuR-RNA complex signal Z-score": 5.07}, {"smiles": "CC(=O)NCCCS(=O)(=O)O", "AlphaScreen HuR-RNA complex signal Z-score": -0.135}, {"smiles": "COc1ccc2c(c1OC)C(=O)O[C@@H]2[C@H]1c2c(cc3c(c2OC)OCO3)CCN1C", "AlphaScreen HuR-RNA complex signal Z-score": 2.56}, {"smiles": "O=C1C=C(O)C(=O)c2ccccc21", "AlphaScreen HuR-RNA complex signal Z-score": 0.456}, {"smiles": "C=C1c2c(Cl)ccc(O)c2C(=O)C2=C(O)[C@]3(O)C(=O)C(C(N)=O)=C(O)[C@@H](N(C)C)[C@@H]3[C@@H](O)[C@H]12.O=C(O)c1cc(S(=O)(=O)O)ccc1O", "AlphaScreen HuR-RNA complex signal Z-score": 0.76}, {"smiles": "C=CC(C)(O)CCC1C(=C)CC(OC(C)=O)C2C(C)(C)CCCC12C", "note": "(stereo unspecified)", "AlphaScreen HuR-RNA complex signal Z-score": 0.804}, {"smiles": "CN1CCN(CCCN2c3ccccc3Sc3ccc(C(F)(F)F)cc32)CC1", "AlphaScreen HuR-RNA complex signal Z-score": -1.61}, {"smiles": "COc1ccc(OC)c(C(O)CNC(=O)CN)c1", "note": "(stereo unspecified)", "AlphaScreen HuR-RNA complex signal Z-score": -0.0372}, {"smiles": "COC(=O)C[C@H]1C(C)(C)C2(O)OC34CC2C(=O)[C@]1(C)C3CC[C@]1(C)C4=CC(=O)O[C@H]1c1ccoc1", "note": "(stereo partly drawn) [8beta-HYDROXYCARAPIN, 3,8-HEMIACETAL]", "AlphaScreen HuR-RNA complex signal Z-score": 1.29}]}]}
